Source: PubChem BioAssay AID445 (National Center for Advancing Translational Sciences (NCATS), 2006)
This is one part of the list. Further columns of the screen follow, without active or inactive calls. Most of these compounds were active or inconclusive in the main read-out, so they are no random draw. Potencies come from curve fits of mixed quality, noted in brackets.

Test: IkB Signaling
Details: ABC-DLBCL IkBa-CBG/CBR dual luciferase ratio (green luciferase fused to IkBa over red control in OCI-Ly3 lymphoma cells), 4 h; measured here: control luc red channel unless noted
Summary of the method: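 Curves were fitted separately to fusion (green), unfused (red) and ratio luminescence, then classed by r2, magnitude and activity. Cells: OCI-Ly3, 4 h compound plus doxycycline at 37C; 10 uM MG-132 defined full response.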
For CCc1cc2cc(C)ccc2nc1SCC(=O)N1CCN(C(=O)c2ccco2)CC1, the AC50 was 15.8 µM [falling, partial curve].
For COc1cccc(CNC(=O)c2cc3c(s2)-c2c(C)cccc2OC3)c1, the AC50 was 15.8 µM [falling, partial curve].
For O=C(Oc1ccc(F)cc1)c1nc(SCc2ccccc2F)ncc1Cl, the AC50 was 12.6 µM [falling, partial curve].
With Oc1ccc(N=Cc2ccc(O)c(O)c2)cc1 the AC50 was 3.98 µM [rising, full curve] [measured here: IkB-luc green channel].
With Cc1ccc2nc(N3CCN(C(=O)C4CC4)CC3)sc2c1 the AC50 was 1.26 µM [rising, full curve].
With Cc1ccc(NS(=O)(=O)c2ccc3nc(-c4ccccc4)[nH]c3c2)c(Cl)c1 the AC50 was 39.8 µM [rising, single point] [measured here: IkB-luc green channel].
With O=C(O)c1ccc2noc(-c3ccccc3)c2c1 the AC50 was 0.251 µM [falling, full curve].
With Cc1ccc(Cn2c(C(=O)O)c(CNC3CCCCCC3)c3ccc(C)cc32)cc1 the AC50 was 20 µM [falling, single point].
For COc1ccc(Cn2c(C(=O)O)c(CNCCc3cccs3)c3ccc(C)cc32)cc1, the AC50 was 15.8 µM [falling, single point].
In the case of CCc1ccccc1OC[C@@H](O)CN[C@H]1CCCc2ccccc21, the AC50 was 20 µM [falling, partial curve].
In the case of Cc1ccc(NC(=O)Cn2c(=O)n(CCC(=O)N3CCc4ccccc4C3)c(=O)c3ccccc32)cc1, the AC50 was 15.8 µM [falling, single point].
With CCOC(=O)CSc1nnc(CNc2ccc(Cl)cc2)n1-c1ccccc1 the AC50 was 12.6 µM [falling, partial curve].
In the case of CC(C)(C)C(=O)NCCc1nc2ccccc2n1CCCCOc1ccc(Cl)cc1, the AC50 was 20 µM [falling, partial curve].
In the case of Cn1c(=O)oc2cc(S(=O)(=O)Nc3ccc4c(c3)OCCO4)ccc21, the AC50 was 1.58 µM [falling, full curve].
In the case of COc1ccc(-n2nc3c(N4CCCC(C(=O)NCc5cccc(F)c5)C4)nnc(C)c3c2C)cc1 (stereo not drawn), the AC50 was 7.94 µM [falling, partial curve].
In the case of CC(C)CN(CCCNC(=O)CN1C(=O)CSc2ccc(S(=O)(=O)N3CCOCC3)cc21)CC(C)C, the AC50 was 0.398 µM [falling, full curve, poor fit].
In the case of CCc1ccccc1N1C(=O)N(Cc2ccccc2C)c2ccccc2S1(=O)=O, the AC50 was 12.6 µM [falling, partial curve].
